In patent publication US20050064384A1, “Recruitment of mst1 or mst2 protein kinase to induce apoptosis in eukaryotic cells” (priority 2001, published 2005):
These are yes or no findings as the source states them, for the method shown. Some results given as binding are weak or reduced against the parent protein; the word gives no strength.

Assays:
[1] = molecular target: T1, C. elegans polypeptide T24F1.3 (yeast two-hybrid; construct not stated) (C. elegans) (UniProt Q22744); test: yeast two-hybrid
T1 sequence: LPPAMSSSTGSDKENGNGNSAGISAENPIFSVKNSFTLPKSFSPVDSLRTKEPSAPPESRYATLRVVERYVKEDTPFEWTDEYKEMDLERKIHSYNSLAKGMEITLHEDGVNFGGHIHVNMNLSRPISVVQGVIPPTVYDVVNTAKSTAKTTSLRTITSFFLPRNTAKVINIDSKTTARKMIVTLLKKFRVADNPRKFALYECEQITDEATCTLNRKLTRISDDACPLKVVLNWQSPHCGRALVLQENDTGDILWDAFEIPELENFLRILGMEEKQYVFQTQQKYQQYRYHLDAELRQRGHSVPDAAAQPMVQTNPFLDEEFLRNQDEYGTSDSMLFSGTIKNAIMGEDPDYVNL

[2] = molecular target: T2, NORE (construct not stated) (mouse) (UniProt Q5EBH1); test: yeast two-hybrid expression cloning, NORE bait
T2 sequence: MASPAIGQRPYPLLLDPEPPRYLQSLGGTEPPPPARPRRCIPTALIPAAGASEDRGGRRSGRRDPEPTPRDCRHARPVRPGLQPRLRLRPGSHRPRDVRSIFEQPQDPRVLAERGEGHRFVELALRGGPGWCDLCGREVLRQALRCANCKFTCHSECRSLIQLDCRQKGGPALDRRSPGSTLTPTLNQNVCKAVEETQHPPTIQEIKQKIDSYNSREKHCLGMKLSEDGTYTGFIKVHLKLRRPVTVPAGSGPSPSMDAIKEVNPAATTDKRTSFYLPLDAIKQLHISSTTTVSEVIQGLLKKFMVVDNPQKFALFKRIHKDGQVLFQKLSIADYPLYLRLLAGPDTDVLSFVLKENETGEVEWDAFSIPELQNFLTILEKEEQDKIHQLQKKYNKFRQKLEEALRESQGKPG

[3] = molecular target: T3, RASSF1A (yeast two-hybrid bait; construct not stated) (human) (UniProt Q9NS23); test: yeast two-hybrid expression cloning, RASSF1A bait
T3 sequence: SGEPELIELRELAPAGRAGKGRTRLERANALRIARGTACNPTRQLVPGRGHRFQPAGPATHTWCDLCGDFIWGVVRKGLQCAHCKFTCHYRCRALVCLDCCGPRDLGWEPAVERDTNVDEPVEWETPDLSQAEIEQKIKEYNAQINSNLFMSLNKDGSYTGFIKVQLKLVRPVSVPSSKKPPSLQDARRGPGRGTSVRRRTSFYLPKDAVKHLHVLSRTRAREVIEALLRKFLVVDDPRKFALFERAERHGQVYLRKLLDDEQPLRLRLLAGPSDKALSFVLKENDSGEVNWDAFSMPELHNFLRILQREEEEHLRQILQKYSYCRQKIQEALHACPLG

[4] = molecular target: T4, endogenous MST1 of KB cells (UniProt Q13043); test: anti-MST1 immunoprecipitation from KB cell extracts, anti-NORE1 immunoblot
T4 sequence (looked up): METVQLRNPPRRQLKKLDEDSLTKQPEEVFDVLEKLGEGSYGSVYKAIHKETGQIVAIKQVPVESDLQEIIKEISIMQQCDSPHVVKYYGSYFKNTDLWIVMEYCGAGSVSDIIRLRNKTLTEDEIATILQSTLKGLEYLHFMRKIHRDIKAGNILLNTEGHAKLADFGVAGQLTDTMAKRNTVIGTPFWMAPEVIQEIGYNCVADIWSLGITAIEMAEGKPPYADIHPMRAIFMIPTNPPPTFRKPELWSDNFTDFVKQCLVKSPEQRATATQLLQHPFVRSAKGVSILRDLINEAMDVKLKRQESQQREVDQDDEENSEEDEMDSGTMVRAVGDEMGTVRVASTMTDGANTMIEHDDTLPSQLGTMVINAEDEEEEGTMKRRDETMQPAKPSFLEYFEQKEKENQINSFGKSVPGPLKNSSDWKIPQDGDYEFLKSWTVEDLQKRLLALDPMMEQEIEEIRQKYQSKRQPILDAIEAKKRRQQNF

[5] = molecular target: T4, endogenous MST1 of KB cells; test: goat anti-MST1 immunoprecipitation from KB cell extracts, anti-NORE1 immunoblot

B1: Ste20-related protein kinase MST1 (murine cDNA isolated in the yeast two-hybrid screen) (enzyme)
chain: METVQLRNPPRRQLKKLDEDSLTKQPEEVFDVLEKLGEGSYGSVYKAIHKETGQIVAIKQVPVESDLQEIIKEISIMQQCDSPHVVKYYGSYFKNTDLWIVMEYCGAGSVSDIIRLRNKTLTEDEIATILQSTLKGLEYLHFMRKIHRDIKAGNILLNTEGHAKLADFGVAGQLTDTMAKRNTVIGTPFWMAPEVIQEIGYNCVADIWSLGITAIEMAEGKPPYADIHPMRAIFMIPTNPPPTFRKPELWSDNFMDFVKQCLVKSPEQRATATQLLQHPFVKSAKGVSILRDLINEAMDVKLKRQEAQQREVDQDDEENSEEDEMDSGTMVRAAGDEMGTVRVASTMSGGANTMIEHGDTLPSQLGTMVINTEDEEEEGTMKRRDETMQPAKPSFLEYFEQKEKENQINSFGKNVSGSLKNSSDWKIPQDGDYEFLKSWTVEDLQKRLLALDPMMEQEMEEIRQKYRSKRQPILDAIEAKKRRQQNF
**Q.** For B1, which binding [1] is on record?
**A.** binds

**Q.** What about the binding [2] of the same binder?
**A.** binds

**Q.** And the binding [3]?
**A.** binds

B2: endogenous NORE1 of KB cells (46 kDa NORE polypeptide) (protein, UniProt Q8WWW0 1-418, looked up)
chain: MAMASPAIGQRPYPLLLDPEPPRYLQSLSGPELPPPPPDRSSRLCVPAPLSTAPGAREGRSARRAARGNLEPPPRASRPARPLRPGLQQRLRRRPGAPRPRDVRSIFEQPQDPRVPAERGEGHCFAELVLPGGPGWCDLCGREVLRQALRCTNCKFTCHPECRSLIQLDCSQQEGLSRDRPSPESTLTVTFSQNVCKPVEETQRPPTLQEIKQKIDSYNTREKNCLGMKLSEDGTYTGFIKVHLKLRRPVTVPAGIRPQSIYDAIKEVNLAATTDKRTSFYLPLDAIKQLHISSTTTVSEVIQGLLKKFMVVDNPQKFALFKRIHKDGQVLFQKLSIADRPLYLRLLAGPDTEVLSFVLKENETGEVEWDAFSIPELQNFLTILEKEEQDKIQQVQKKYDKFRQKLEEALRESQGKPG
**Q.** Which binding [4] does the source give for B2 here?
**A.** binds

**Q.** What about the binding [5] of the same binder?
**A.** binds
